This passage reports binding results from publication PMC5983870.

Protein sequences, listed by entry. Tags and fused reporters are not part of them. Residues count along the entry.
UniProt Q8IUC6: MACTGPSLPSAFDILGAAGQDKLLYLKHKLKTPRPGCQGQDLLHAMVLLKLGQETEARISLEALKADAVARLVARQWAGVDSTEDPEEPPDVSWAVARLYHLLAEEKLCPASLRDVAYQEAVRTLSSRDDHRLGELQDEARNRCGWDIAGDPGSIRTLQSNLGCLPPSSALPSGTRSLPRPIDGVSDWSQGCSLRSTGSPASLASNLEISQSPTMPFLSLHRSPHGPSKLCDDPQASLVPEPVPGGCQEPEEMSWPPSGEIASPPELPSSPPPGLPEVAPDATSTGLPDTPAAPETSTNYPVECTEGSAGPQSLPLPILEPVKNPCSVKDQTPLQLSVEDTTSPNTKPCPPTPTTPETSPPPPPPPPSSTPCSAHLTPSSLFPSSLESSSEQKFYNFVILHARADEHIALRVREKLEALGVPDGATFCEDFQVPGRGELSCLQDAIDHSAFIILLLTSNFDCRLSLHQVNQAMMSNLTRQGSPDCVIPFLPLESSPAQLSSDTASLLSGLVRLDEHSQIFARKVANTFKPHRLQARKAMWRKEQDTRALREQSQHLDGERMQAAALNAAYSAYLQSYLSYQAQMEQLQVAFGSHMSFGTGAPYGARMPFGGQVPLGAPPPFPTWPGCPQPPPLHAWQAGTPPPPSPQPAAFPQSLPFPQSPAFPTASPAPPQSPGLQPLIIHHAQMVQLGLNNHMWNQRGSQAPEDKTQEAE
UniProt Q99IB8, residues 1716-1976: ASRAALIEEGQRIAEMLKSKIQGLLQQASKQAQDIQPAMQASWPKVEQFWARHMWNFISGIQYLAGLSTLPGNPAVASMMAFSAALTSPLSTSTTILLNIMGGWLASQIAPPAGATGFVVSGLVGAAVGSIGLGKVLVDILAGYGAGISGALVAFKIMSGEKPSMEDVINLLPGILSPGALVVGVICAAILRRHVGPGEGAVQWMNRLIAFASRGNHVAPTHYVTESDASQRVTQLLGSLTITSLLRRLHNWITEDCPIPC

These are yes or no findings as the source states them, for the method shown. Binding seen in cells or lysates may run through a third protein.

For the test, the target named is TIR-domain-containing adaptor protein including IFN-β (TRIF) (UniProt Q8IUC6). The test is described as follows: co-IP; told only in one sentence of the discussion; no figure, no methods, cells and constructs not described.

In the case of “Hepatitis C virus NS4B protein (from UniProt Q99IB8 1716-1976)”, the binding result is on record as “no binding”.
